Measured values as given in US6468969B1, “Inhibition of HIV-1 replication using d-amino acid peptides” (priority 1997, dated 2002).
Part of at least one peptide drawing is inferred or uncertain, most often the ends.

Assays:
[1] = tested on: wild-type TAR RNA; assay: Electrophoretic mobility shift / competition assay, binding to wild-type TAR RNA; set-up: species or system HIV-1
[2] = tested on: two base bulge containing TAR RNA (M2); assay: Competition gel-shift assay with two base bulge TAR RNA (M2); type: binding, HIV-1; conditions: labeled TAR 0.1 μM, peptide 0.25 μM, competitor 0-1.2 μM
[3] = tested on: L-Tat-TAR complex; assay: Inhibition of L-Tat-TAR complex formation by photocrosslinking and proteinase K digestion; type: binding, HIV-1; conditions: increasing amounts of D-Tat, photocrosslinking, proteinase K digestion
[4] = tested on: mutant M0 TAR RNA (without bulge bases); assay: Electrophoretic mobility shift / competition assay with mutant TAR RNA without bulge (M0); type: binding, HIV-1
[5] = tested on: mutant TAR RNA with one base bulge (M1); assay: Competition gel-shift assay with one base bulge mutant TAR RNA (M1); type: binding, HIV-1; conditions: labeled TAR 0.1 μM, peptide 0.25 μM, competitor 0-1.2 μM
[6] = tested on: mutant TAR (G26C); assay: Competition gel-shift assay with mutant TAR (G26C); type: binding, HIV-1; conditions: labeled TAR 0.1 μM, peptide 0.25 μM, competitor 0-1.2 μM
[7] = tested on: Tat transactivation (HIV-1 LTR-CAT reporter); assay: Tat transactivation assay, CAT activity from integrated HIV-1 LTR in HL3T1 (HeLa) cells; type: cell-based

Structure (SMILES): CC[C@@H](C)[C@@H](NC(=O)CNC(=O)[C@@H](CC(C)C)NC(=O)[C@@H](C)NC(=O)[C@@H](CCCCN)NC(=O)[C@H](NC(=O)[C@H](NC(=O)[C@@H](Cc1ccccc1)NC(=O)[C@H](N)CS)[C@H](C)O)[C@H](C)O)C(=O)N[C@H](CO)C(=O)N[C@H](Cc1ccc(O)cc1)C(=O)NCC(=O)N[C@H](CCCNC(=N)N)C(=O)N[C@H](CCCCN)C(=O)N[C@H](CCCCN)C(=O)N[C@H](CCCNC(=N)N)C(=O)N[C@H](CCCNC(=N)N)C(=O)N[C@H](CCC(N)=O)C(=O)N[C@H](CCCNC(=N)N)C(=O)N[C@H](CCCNC(=N)N)C(=O)N[C@H](CCCNC(=N)N)C(=O)N1CCC[C@@H]1C(=O)N1CCC[C@@H]1C(=O)N[C@H](CCC(N)=O)C(=O)NCC(=O)N[C@H](CO)C(=O)N[C@H](CCC(N)=O)C(=O)N[C@@H](C(=O)N[C@H](Cc1c[nH]cn1)C(=O)N[C@H](CCC(N)=O)C(=O)N[C@@H](C(=O)N[C@H](CO)C(=O)N[C@H](CC(C)C)C(=O)N[C@H](CO)C(=O)N[C@H](CCCCN)C(=O)N[C@H](CCC(N)=O)C(=O)O)C(C)C)[C@H](C)O [D-Tat (37-72) peptide, D-Cys-D-Phe-D-Thr-D-Thr-D-Lys-D-Ala-D-Leu-D-Gly-D-Ile-D-Ser-D-Tyr-D-Gly-D-Arg-D-Lys-D-Lys-D-Arg-D-Arg-D-Gln-D-Arg-D-Arg-D-Arg-D-Pro-D-Pro-D-Gln-D-Gly-D-Ser-D-Gln-D-Thr-D-His-D-Gln-D-Val-D-Ser-D-Leu-D-Ser-D-Lys-D-Gln]
- binding to TAR RNA (gel shift) ([1]; RNA 0.1 μM, peptide 0.5 μM): able to bind TAR RNA
- Kd ([1]; competition electrophoretic mobility assays, eight sets of experiments, read-out: Kd (equilibrium dissociation constant) of peptide-TAR RNA complex): 220 nM
- binding of two base bulge TAR RNA (M2) to peptide, competition with wild-type TAR RNA [2]: can bind the D-Tat peptide and inhibit its binding to wild-type TAR RNA
- competition with L-Tat for complex formation with TAR RNA in vitro [3]: can compete with L-Tat
- binding to mutant TAR RNA without the bulge residues (gel shift) ([4]; RNA 0.1 μM, peptide 0.5 μM): failed to bind
- competition of mutant TAR RNA without trinucleotide bulge for peptide binding to wild-type TAR RNA ([4]; labeled TAR 0.1 μM, peptide 0.25 μM, competitor 0-1.2 μM): not able to compete
- competition of one base bulge mutant TAR RNA for peptide binding to wild-type TAR RNA [5]: not able to compete
- inhibition of peptide binding to TAR RNA by mutant TAR (G26C) [6]: did not inhibit
- inhibition of Tat trans-activation (CAT activity) ([7]; 5μg peptide, cotransfected with pSV2-Tat and pAL): more than 50%
- luciferase activity (transfection control) ([7]; increasing amount of peptide): not affected
- effect on CAT activity ([7]; transfection of peptide): decrease of CAT activity
